No constants are given. Whether binding was seen depends on the method and setting. In cells and extracts the contact can be indirect. These calls come from enrichment with a bait or labelling near it, and not all partners need be listed. Where a sequence is shown, tags or fusion partners need not be part of it.
How the values were obtained:
[1] = biological target: T1, Ssf1-3xFLAG-3C-2xProteinA (S. cerevisiae) (UniProt P38789); test: affinity purification with mass spectrometry; purification of pre-60S intermediates from a drs1 R569Q strain by tags on Drs1 R569Q (3x-Strep) and Ssf1 (2x-ProtA); Coomassie-stained 4-20% SDS-PAGE
T1 sequence: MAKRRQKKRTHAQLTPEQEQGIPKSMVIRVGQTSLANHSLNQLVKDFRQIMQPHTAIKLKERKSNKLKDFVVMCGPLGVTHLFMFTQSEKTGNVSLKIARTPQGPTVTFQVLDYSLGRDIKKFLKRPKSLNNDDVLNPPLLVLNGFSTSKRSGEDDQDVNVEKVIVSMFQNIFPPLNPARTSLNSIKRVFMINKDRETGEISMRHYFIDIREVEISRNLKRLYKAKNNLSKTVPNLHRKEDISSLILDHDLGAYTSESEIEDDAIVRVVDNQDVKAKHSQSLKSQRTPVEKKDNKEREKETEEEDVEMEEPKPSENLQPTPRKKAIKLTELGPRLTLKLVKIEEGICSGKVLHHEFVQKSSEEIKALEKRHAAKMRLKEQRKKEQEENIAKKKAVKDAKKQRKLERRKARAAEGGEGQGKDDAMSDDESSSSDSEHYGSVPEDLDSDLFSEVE

Protein sequences, listed by entry. Tags and fused reporters are not part of them.
UniProt Q07915: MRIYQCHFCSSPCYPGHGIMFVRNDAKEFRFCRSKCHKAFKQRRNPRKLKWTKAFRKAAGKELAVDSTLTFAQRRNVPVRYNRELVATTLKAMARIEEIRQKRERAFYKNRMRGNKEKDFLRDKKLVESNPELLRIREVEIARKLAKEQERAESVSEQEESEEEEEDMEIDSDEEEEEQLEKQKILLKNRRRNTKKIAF

[2] = biological target: T1, Ssf1-3xFLAG-3C-2xProteinA (S. cerevisiae); test: affinity purification with mass spectrometry; split-tag purification of pre-60S particles from steady state DBP10 yeast: IgG Sepharose on Ssf1-2xProteinA, 3C cleavage, then Strep-Tactin on 2xStrep-Dbp10, desthiobiotin elution; buffers with 50 µM ADP-BeF3; Coomassie-stained 4-20% SDS-PAGE, bands named by molecular weight, ambiguous bands by mass spectrometry
[3] = biological target: T2, Noc2-3xFLAG-3C-2xProteinA (S. cerevisiae) (UniProt P39744); test: affinity purification with mass spectrometry; split-tag purification of pre-60S particles from SPB4-AID yeast without and with auxin (0.5 mM IAA, 45 min): IgG Sepharose on Noc2-2xProteinA, 3C cleavage, then Strep-Tactin on 2xStrep-Dbp10; buffers with 50 µM ADP-BeF3; Coomassie-stained 4-20% SDS-PAGE, bands named by molecular weight, ambiguous bands by mass spectrometry; auxin gave ~10-fold enrichment of the particle
T2 sequence: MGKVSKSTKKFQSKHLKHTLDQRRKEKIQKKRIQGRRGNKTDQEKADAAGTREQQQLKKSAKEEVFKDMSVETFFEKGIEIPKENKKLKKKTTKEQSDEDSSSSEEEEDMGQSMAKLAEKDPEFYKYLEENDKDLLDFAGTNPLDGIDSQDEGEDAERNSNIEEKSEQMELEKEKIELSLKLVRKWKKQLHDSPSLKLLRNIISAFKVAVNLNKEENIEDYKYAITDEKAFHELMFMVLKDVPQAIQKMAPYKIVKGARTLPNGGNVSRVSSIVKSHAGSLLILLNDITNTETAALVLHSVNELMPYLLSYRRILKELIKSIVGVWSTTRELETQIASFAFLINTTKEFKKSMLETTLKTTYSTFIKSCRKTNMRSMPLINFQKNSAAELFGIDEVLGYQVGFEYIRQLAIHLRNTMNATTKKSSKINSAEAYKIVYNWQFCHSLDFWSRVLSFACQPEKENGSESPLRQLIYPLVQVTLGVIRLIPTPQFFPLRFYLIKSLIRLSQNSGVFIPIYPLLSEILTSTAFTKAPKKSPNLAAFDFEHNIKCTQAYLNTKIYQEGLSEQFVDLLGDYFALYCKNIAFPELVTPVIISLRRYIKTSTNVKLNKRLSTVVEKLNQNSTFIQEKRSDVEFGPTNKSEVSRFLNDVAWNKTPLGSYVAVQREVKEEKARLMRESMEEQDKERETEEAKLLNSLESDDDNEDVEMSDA

[4] = biological target: T1, Ssf1-3xFLAG-3C-2xProteinA (S. cerevisiae); test: affinity purification with mass spectrometry; split-tag purification of pre-60S particles from yeast overexpressing dbp10 R522V (β-estradiol, 1 h): IgG Sepharose on Ssf1-2xProteinA, 3C cleavage, then Strep-Tactin on Dbp10 R522V, bdNEDD8 protease elution; 50 mM Bis-Tris-Propane pH 8.0, 125 mM NaCl, 25 mM KCl, 10 mM MgCl2; Coomassie-stained 4-20% SDS-PAGE, bands named by molecular weight, ambiguous bands by mass spectrometry
[5] = biological target: T3, Drs1 R569Q (3x-Strep-Drs1 R569Q) (S. cerevisiae) (UniProt P32892); test: affinity purification with mass spectrometry; purification of pre-60S intermediates from a drs1 R569Q strain by tags on Drs1 R569Q (3x-Strep) and Ssf1 (2x-ProtA); Coomassie-stained 4-20% SDS-PAGE
T3 sequence: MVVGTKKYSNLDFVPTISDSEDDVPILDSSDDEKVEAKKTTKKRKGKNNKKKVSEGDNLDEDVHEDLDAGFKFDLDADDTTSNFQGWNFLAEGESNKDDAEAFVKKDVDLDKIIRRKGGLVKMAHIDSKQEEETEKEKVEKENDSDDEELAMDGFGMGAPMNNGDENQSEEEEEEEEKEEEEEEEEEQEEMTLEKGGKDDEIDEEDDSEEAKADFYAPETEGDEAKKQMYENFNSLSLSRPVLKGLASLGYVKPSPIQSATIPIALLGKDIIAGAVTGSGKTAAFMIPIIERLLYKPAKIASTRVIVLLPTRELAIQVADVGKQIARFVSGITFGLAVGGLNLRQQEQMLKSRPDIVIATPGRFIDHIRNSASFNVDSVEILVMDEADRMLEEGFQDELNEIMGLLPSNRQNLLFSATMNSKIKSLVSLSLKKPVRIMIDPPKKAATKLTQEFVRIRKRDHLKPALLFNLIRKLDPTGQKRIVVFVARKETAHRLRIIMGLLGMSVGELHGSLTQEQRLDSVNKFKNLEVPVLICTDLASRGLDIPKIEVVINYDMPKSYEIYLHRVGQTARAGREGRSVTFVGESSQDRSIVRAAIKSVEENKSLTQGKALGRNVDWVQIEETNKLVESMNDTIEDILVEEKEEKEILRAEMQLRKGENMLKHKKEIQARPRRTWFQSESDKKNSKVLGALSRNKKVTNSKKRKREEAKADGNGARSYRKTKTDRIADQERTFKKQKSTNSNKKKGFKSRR

[6] = biological target: T4, Dbp10 (2xStrep-bdNEDD8-DBP10) (S. cerevisiae) (UniProt Q12389); test: affinity purification with mass spectrometry; split-tag purification of pre-60S particles from steady state DBP10 yeast: IgG Sepharose on Ssf1-2xProteinA, 3C cleavage, then Strep-Tactin on 2xStrep-Dbp10, desthiobiotin elution; buffers with 50 µM ADP-BeF3; Coomassie-stained 4-20% SDS-PAGE, bands named by molecular weight, ambiguous bands by mass spectrometry
T4 sequence: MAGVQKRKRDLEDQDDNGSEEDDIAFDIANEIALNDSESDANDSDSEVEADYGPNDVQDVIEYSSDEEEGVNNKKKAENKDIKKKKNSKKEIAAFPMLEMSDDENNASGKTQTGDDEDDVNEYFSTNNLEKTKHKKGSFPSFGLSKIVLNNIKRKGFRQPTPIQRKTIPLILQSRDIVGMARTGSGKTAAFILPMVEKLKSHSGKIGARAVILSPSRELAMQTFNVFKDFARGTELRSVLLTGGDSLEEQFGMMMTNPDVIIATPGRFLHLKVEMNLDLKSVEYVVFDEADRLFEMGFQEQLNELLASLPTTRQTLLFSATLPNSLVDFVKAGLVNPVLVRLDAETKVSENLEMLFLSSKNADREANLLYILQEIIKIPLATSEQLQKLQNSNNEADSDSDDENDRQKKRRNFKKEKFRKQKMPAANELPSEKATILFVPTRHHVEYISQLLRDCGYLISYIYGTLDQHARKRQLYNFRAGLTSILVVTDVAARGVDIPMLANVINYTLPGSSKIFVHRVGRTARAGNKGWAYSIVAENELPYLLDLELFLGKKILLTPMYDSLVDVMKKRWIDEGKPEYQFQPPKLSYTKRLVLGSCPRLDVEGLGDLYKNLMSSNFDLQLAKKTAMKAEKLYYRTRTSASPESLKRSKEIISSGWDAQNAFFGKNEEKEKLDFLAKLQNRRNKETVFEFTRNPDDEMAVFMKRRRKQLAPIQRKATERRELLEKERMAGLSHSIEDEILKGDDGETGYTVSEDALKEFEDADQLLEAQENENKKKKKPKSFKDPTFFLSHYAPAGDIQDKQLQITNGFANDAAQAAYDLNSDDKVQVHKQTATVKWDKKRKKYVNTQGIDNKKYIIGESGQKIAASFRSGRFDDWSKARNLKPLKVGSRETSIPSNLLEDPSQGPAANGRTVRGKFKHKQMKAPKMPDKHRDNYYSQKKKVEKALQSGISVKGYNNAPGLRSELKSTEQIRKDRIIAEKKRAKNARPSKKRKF

[7] = biological target: T5, Dbp10 R522V (sfGFP-3xSTREP-bdNEDD8-MYC-dbp10 R522V) (S. cerevisiae) (UniProt Q12389); test: affinity purification with mass spectrometry; split-tag purification of pre-60S particles from yeast overexpressing dbp10 R522V (β-estradiol, 1 h): IgG Sepharose on Ssf1-2xProteinA, 3C cleavage, then Strep-Tactin on Dbp10 R522V, bdNEDD8 protease elution; 50 mM Bis-Tris-Propane pH 8.0, 125 mM NaCl, 25 mM KCl, 10 mM MgCl2; Coomassie-stained 4-20% SDS-PAGE, bands named by molecular weight, ambiguous bands by mass spectrometry
T5 sequence: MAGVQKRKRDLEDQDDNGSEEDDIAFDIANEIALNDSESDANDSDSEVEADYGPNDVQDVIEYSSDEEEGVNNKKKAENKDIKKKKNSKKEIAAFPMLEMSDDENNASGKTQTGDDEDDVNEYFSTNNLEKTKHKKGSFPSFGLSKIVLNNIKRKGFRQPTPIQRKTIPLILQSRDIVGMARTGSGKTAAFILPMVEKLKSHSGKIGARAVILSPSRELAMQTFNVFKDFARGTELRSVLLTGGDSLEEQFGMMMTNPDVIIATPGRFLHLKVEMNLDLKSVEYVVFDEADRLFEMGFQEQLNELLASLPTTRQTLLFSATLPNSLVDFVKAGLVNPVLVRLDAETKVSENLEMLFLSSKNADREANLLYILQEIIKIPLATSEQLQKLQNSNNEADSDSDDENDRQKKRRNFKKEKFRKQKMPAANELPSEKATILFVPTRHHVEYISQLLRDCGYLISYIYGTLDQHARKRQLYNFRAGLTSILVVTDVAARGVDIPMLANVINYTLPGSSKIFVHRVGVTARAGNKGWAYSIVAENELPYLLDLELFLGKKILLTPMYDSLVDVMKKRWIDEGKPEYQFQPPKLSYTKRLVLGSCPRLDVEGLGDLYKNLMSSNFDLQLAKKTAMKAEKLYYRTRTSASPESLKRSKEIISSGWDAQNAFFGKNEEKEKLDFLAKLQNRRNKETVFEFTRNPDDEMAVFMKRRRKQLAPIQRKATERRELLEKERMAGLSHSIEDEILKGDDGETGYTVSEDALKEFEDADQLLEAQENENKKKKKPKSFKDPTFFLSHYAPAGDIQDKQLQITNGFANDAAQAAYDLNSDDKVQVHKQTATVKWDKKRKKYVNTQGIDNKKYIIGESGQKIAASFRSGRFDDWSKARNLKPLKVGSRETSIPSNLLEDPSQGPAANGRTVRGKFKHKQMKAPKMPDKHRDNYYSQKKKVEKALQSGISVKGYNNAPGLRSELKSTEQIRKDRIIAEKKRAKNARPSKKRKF

Measured: binding

Rlp24 (from UniProt Q07915 1-199)
binds: [1] | [2] | [3] | [4]

B1: Ssf1-3xFLAG-3C-2xProteinA (protein, UniProt P38789 1-453)
chain: MAKRRQKKRTHAQLTPEQEQGIPKSMVIRVGQTSLANHSLNQLVKDFRQIMQPHTAIKLKERKSNKLKDFVVMCGPLGVTHLFMFTQSEKTGNVSLKIARTPQGPTVTFQVLDYSLGRDIKKFLKRPKSLNNDDVLNPPLLVLNGFSTSKRSGEDDQDVNVEKVIVSMFQNIFPPLNPARTSLNSIKRVFMINKDRETGEISMRHYFIDIREVEISRNLKRLYKAKNNLSKTVPNLHRKEDISSLILDHDLGAYTSESEIEDDAIVRVVDNQDVKAKHSQSLKSQRTPVEKKDNKEREKETEEEDVEMEEPKPSENLQPTPRKKAIKLTELGPRLTLKLVKIEEGICSGKVLHHEFVQKSSEEIKALEKRHAAKMRLKEQRKKEQEENIAKKKAVKDAKKQRKLERRKARAAEGGEGQGKDDAMSDDESSSSDSEHYGSVPEDLDSDLFSEVE
binds: [5] | [6] | [7]

B2: Nsa2 (protein, UniProt P40078 1-261)
chain: MPQNDYIERHIKQHGKRLDHEERKRKREARESHKISERAQKLTGWKGKQFAKKRYAEKVSMRKKIKAHEQSKVKGSSKPLDTDGDALPTYLLDREQNNTAKAISSSIKQKRLEKADKFSVPLPKVRGISEEEMFKVIKTGKSRSKSWKRMITKHTFVGEGFTRRPVKMERIIRPSALRQKKANVTHPELGVTVFLPILAVKKNPQSPMYTQLGVLTKGTIIEVNVSELGMVTAGGKVVWGKYAQVTNEPDRDGCVNAVLLV
binds: [1] | [2] | [3] | [4]
